# Assay results: PubChem BioAssay (EPA / NIEHS)
# The chains behind the UniProt entries cited, without tags or fusion partners. Where a name states a change or a piece, a line headed by the entry shows the natural chain unless it says otherwise.
# UniProt P62508: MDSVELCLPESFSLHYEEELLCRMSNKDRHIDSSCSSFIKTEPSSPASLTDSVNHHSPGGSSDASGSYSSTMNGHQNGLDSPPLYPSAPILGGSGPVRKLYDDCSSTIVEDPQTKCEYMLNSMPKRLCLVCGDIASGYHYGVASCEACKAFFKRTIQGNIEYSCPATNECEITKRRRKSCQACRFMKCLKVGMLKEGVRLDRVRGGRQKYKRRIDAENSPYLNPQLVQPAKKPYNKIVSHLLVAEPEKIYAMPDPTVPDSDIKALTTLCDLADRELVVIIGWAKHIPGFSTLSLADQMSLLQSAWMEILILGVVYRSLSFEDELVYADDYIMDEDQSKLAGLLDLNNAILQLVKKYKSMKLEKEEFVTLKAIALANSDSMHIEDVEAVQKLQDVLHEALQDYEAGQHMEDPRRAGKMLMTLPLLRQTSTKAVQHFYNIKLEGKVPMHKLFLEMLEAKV
# Where “and” joins values, the source holds several entries; their conditions need not be identical. Equal entries are not always repeated. The shares of active, inactive and inconclusive entries below differ from those in the screen. Where the call is inconclusive, the potency comes from a doubtful curve fit. Calls of active or inactive are those of the source. The calls were made as follows: active = hit-call score of the fitted dose curve at least 0.9, where 1 is the maximum; inconclusive = response in the unintended direction; inactive = score below 0.9.
# Target: Estrogen-related receptor gamma (Homo sapiens) (UniProt P62508)
# Assay: ATG_ERRg_TRANS: Attagene TRANS-FACTORIAL HepG2 Assay for human Estrogen-Related Receptor gamma (ERRg) (AID 2282977);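 also: hits increase reporter signal over DMSO so potencies reflect activators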
# Settings: HepG2 Attagene TRANS reporter, ERRg transactivation
# Protocol: ATG_TRANS is a cell-based, multiplexed-readout assay that uses HepG2, a human liver cell line, with measurements taken at 24 hours after chemical dosing in a 24-well plate.ATG_ERRg_TRANS is one of 30 assay component(s) measured or calculated from the ATG_TRANS assay. It is designed to make measurements of mRNA induction, a form of inducible reporter, as detected with fluorescence intensity signals by Reverse transcription polymerase chain reaction (RT-PCR) and Capillary electrophoresis technology.Data from the assay component ATG_ERRg_TRANS was analyzed into 1 assay endpoint. This assay endpoint, ATG_ERRg_TRANS, was analyzed in the positive analysis fitting direction relative to DMSO as the negative control and baseline of activity. Using a type of inducible reporter, measures of mRNA for gain-of-signal activity can be used to understand the reporter gene at the transcription factor-level as they relate to the gene ESRRG. Furthermore, this assay endpoint can be referred to as a primary readout, because this assay has produced multiple assay endpoints where this one serves a reporter gene function. To generalize the intended target to other relatable targets, this assay endpoint is annotated to the nuclear receptor intended target family, where the subfamily is steroidal.
# Human liver HepG2 cells are transiently transfected with multiple reporter transcription units (MRTUs) in 6-well plates using FuGene 6 reagent (Roche; 3 ml FuGene/1 mg DNA). The MRTU constructs are regulated by a cis-regulating element (promoter). […] A major difference between the CIS and TRANS system is that in CIS activities of endogenous TFs are measured, whereas the TRANS assay evaluates changes in activities of exogenous, chimeric NR-Gal4 proteins. […] At the end of 24 hour incubation, total RNA was isolated using TriZol reagent (Invitrogen). The isolated RNA is then reverse-transcribed using oligo(dT) primer and Mo-MLV reverse transcriptase (Invitrogen) with DNAse I (Ambion) treatment for 30 min. The one-tenth of the produced cDNA was amplified by PCR using Taq DNA polymerase (Invitrogen) and two reporter sequence-specific primers. The PCR products were fluorescently labeled by primer extension with 6-arboxyfluorescein (6-FAM) 5'-labeled reporter sequence-specific primer (2 min at 95 C, 20 s at 68 C and 10 min at 72 C) and these products were digested with 5U of HpaI (New England Biolabs) for 2h at 37 C. The fragments were purified using Qiaquick PCR columns (Qiagen), analyzed on an ABI 3130xL genetic analyzer (Applied Biosystems) with peak positions identified by using a set of X-rhodamine (ROX)-labeled MapMarker1000 molecular weight standards (BioVentures). The raw capillary electrophoresis data was processed using Attagraph software (Attagene).
SMILES,outcome,AC50
CCCCNC(=S)NCCCC,inactive,–
COc1cc([C@@H]2c3cc4c(cc3[C@@H](O[C@@H]3O[C@@H]5CO[C@@H](C)O[C@H]5[C@H](O)[C@H]3O)[C@H]3COC(=O)[C@H]23)OCO4)cc(OC)c1O,inactive,–
Cc1cc(=O)oc2cc(N(C)C)ccc12,–,inconclusive: 10.3 µM
CCN(CCO)S(=O)(=O)C(F)(F)C(F)(F)C(F)(F)C(F)(F)C(F)(F)C(F)(F)C(F)(F)C(F)(F)F,–,inconclusive: 261 µM
CCCCCCCCCCCCCC,–,inconclusive: 49.4 µM
CCC(C)c1ccccc1O (stereo unspecified),–,inconclusive: 100 µM
NCCOCCOCCN,–,inconclusive: 100 µM
Cc1cc(=O)[nH]c(C(C)C)n1,–,inconclusive: 100 µM
Cc1cc(C)cc(O)c1,inactive,inconclusive: 103 µM
COc1cc(C(=O)NC2CCN(C)CC2)ccc1Nc1ncc2c(n1)N(C1CCCC1)CC(F)(F)C(=O)N2C,–,inconclusive: 0.579 µM
Cc1ccc2oc(CN(Cc3ccccc3)C(=O)Nc3c(F)cc(F)cc3F)c(-c3ccc(Cl)cc3)c2c1,–,inconclusive: 43.3 µM
CCCCCCCCCCCCCC(=O)OCC(O)CO (stereo unspecified),–,inconclusive: 175 µM
CCOC=O,inactive,–
C=CC(=O)OCCCCCCCCCC,–,inconclusive: 100 µM
CCCCCC[C@@H](O)C/C=C\CCCCCCCC(=O)O,–,inconclusive: 160 µM
N[C@@H](Cc1cc(I)c(Oc2cc(I)c(O)c(I)c2)c(I)c1)C(=O)O,–,inconclusive: 117 µM

# A second format for part of the listing above:
SMILES	outcome	AC50
CCN(CCO)S(=O)(=O)C(F)(F)C(F)(F)C(F)(F)C(F)(F)C(F)(F)C(F)(F)C(F)(F)C(F)(F)F	–	inconclusive: 261 µM
N[C@@H](Cc1cc(I)c(Oc2cc(I)c(O)c(I)c2)c(I)c1)C(=O)O	–	inconclusive: 117 µM

# Later entries.

SMILES,outcome,AC50
CCSC(=O)N(CC(C)C)CC(C)C,inactive,–
Cc1ccc(C(=O)c2cc(O)c(O)c([N+](=O)[O-])c2)cc1,–,inconclusive: 100 µM
CCc1cccc(CC)c1NC(=O)C(=O)O,inactive,–
O=C(Cl)C(F)(F)C(F)(F)C(F)(F)C(F)(F)C(F)(F)C(F)(F)F,–,inconclusive: 30.4 µM
COc1cc(/C=C/C(=O)CC(=O)/C=C/c2ccc(O)c(OC)c2)ccc1O,inactive,–
C=CC(=O)OCC(F)(F)C(F)(F)C(F)(F)C(F)(F)C(F)(F)C(F)(F)C(F)(F)F,–,inconclusive: 83.3 µM
CC(=O)CC(C)C,–,inconclusive: 100 µM
CC(C)(C)c1cc(O)c(C(C)(C)C)cc1O,–,inconclusive: 48.5 µM
COc1c(Cl)c(Cl)c(Cl)c(Cl)c1Cl,–,inconclusive: 100 µM
O=C(Cl)c1c(Cl)c(Cl)c(C(=O)Cl)c(Cl)c1Cl,inactive,–
Cc1cc(O)c(C)c(C)c1O,inactive,–
CN(C(=O)C(F)(F)C(F)(F)C(F)(F)F)[Si](C)(C)C,–,inconclusive: 150 µM
C[N+](C)(CCCNS(=O)(=O)CCC(F)(F)C(F)(F)C(F)(F)C(F)(F)C(F)(F)C(F)(F)F)CC(=O)[O-],inactive,–
FC(F)(F)C(F)(F)C(F)(F)C(F)(F)C(F)(F)C(F)(F)C(F)(F)Br,–,inconclusive: 50 µM
O=Cc1ccc(Cl)c([N+](=O)[O-])c1,–,inconclusive: 41.2 µM
OCCCCCO,–,inconclusive: 182 µM
CCOCOCC,–,inconclusive: 100 µM
CC(C)C=O,inactive,inconclusive: 100 µM
